Source: US20140017242A1, “ANTI-BRADYKININ B2 RECEPTOR (BKB2R) MONOCLONAL ANTIBODY” (Diamedica, Inc., priority 2010, published 2014)
Changes are numbered by the printed parent chain. These are yes or no findings as the source states them, for the method shown. Some binding calls cover weakened binding; strength is not graded here. Values belong to the binder of their own block, whether it stands above or below them. Where no end group is shown, it is not given here.

Target: T1, human BKB2R-derived epitope peptide (SEQ ID NO:73), PEG-biotin (human)
T1 sequence (peptide, PEG-biotin (printed as 'Seq ID No. 2-PEG-biotin' in p-0437)): KEYSDEGHNVTAC
Experiment: BLI (Octet), peptide on sensor

B2: humanized anti-BKB2R antibody H38/L39 (antibody, human IgG2, kappa, V domains shown)
VH: EVQLLESGGGLVQPGGSLKLSCAVSGFTFSDYWMSWVRQAPGKGLEWVSEIRLKSDNYATHYADSVKGRFTISRDDSKNTLYLQMNSLRAEDTAVYYCTRDYYAMEYWGQGTLVTVSS
VL: DVVMTQTPLSLSVTPGQPASISCKSSQTIVHSNGKTYLEWYLQKPGQSPQLLIYKVSNRFSGVPDRFSGSGSGTDFTLKISRVEAEDVGVYYCFQASHVPYTFGQGTKLEIKR
- binding: binds

B3: humanized anti-BKB2R antibody H38/L38 (antibody, human IgG2, kappa, V domains shown)
VH: B2 VH
VL: B2 VL with V2I, S12P, P15S, Q17E, K24R, E39D, F60A, Q105G, L109V
- binding: binds

Second part, the binder after the results:

- binding: binds
B1: humanized anti-BKB2R antibody L2/H1 (antibody, human IgG2, kappa, V domains shown)
VH: B2 VH with L5V, K19R, V24A, S49A, D64E, D76N, S77A, T80S
VL: B2 VL with V2I, T7S, S12P, Q17E, K24R, D75E

- binding: binds
B4: humanized anti-BKB2R antibody L2/H2 (antibody, human IgG2, kappa, V domains shown)
VH: B2 VH with L5V, K19R, A23V, V24A, S49A, D64E, S77A, T80S
VL: B2 VL with V2I, T7S, S12P, Q17E, K24R, D75E
notes: also called H2/L2

- binding: binds
B5: humanized anti-BKB2R antibody H39/L37 (antibody, human IgG2, kappa, V domains shown)
VH: EVKLVESGGGLVQPGGSLRLSCAVSGFTFSDYWMDWVRQAPGKGLEWVAEIRLKSDNYATHYAASVKGRFTISRDDSKSRLYLQMNSLKTEDTAVYYCTRDYYAMEYWGQGTTVTVSS
VL: B2 VL with V2I, E39Y, N58S
